Data reported in article PMC5299403.
No constants are given. Whether binding was seen depends on the method and setting. Binding seen in cells or lysates may run through a third protein. Some binding calls cover weakened binding; strength is not graded here. For some assays here: Where a sequence is shown, tags or fusion partners need not be part of it.

Chains of the proteins cited; added tags and fusions are not shown. Lines headed by an entry give the natural chain unless they say otherwise; changes in a name come on top.
UniProt P20357: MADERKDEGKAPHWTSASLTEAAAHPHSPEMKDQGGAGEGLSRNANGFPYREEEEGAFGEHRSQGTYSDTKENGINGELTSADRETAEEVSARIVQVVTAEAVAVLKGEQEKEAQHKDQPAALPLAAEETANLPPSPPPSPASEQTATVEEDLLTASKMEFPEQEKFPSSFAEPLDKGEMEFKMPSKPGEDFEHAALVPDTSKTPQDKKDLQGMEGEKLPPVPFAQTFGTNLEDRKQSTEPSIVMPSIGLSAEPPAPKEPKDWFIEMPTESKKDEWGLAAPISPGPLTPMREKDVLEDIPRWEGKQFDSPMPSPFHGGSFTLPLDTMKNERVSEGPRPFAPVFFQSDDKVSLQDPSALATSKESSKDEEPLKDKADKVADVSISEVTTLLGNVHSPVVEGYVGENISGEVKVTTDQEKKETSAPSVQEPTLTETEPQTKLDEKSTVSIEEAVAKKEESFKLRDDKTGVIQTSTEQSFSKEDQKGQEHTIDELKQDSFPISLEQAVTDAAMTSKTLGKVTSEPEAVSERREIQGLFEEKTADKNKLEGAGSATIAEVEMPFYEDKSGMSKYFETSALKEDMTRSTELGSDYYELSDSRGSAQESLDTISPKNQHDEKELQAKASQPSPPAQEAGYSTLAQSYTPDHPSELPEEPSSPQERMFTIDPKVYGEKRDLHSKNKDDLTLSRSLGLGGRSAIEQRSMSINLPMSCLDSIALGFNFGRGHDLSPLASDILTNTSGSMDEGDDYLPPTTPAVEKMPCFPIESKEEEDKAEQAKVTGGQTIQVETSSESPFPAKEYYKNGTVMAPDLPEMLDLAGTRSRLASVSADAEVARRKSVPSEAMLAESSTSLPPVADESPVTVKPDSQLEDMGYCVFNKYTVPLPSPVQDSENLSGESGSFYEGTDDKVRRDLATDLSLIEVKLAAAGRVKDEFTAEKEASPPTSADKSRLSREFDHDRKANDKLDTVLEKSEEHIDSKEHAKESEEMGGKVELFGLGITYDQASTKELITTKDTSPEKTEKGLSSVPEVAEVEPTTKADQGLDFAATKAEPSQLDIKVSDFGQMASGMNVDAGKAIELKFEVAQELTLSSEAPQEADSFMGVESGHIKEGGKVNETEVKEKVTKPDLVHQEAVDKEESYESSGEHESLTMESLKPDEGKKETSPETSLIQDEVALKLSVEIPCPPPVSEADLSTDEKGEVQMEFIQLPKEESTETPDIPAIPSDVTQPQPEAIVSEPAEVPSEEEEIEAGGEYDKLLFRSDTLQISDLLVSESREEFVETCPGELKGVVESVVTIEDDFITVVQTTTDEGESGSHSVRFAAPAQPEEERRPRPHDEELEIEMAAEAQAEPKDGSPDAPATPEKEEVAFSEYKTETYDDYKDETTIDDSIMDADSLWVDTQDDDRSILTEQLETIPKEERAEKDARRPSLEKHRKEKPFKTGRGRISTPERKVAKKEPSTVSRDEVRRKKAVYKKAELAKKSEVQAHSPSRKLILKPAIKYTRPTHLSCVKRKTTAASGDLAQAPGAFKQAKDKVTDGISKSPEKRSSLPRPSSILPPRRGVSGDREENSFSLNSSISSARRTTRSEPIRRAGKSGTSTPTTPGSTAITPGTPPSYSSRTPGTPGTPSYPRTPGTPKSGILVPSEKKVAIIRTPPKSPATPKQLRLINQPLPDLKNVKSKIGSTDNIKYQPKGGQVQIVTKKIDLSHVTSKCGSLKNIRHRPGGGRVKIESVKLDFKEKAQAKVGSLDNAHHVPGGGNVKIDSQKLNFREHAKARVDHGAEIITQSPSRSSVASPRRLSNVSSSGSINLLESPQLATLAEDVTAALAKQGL
UniProt G5E8K5: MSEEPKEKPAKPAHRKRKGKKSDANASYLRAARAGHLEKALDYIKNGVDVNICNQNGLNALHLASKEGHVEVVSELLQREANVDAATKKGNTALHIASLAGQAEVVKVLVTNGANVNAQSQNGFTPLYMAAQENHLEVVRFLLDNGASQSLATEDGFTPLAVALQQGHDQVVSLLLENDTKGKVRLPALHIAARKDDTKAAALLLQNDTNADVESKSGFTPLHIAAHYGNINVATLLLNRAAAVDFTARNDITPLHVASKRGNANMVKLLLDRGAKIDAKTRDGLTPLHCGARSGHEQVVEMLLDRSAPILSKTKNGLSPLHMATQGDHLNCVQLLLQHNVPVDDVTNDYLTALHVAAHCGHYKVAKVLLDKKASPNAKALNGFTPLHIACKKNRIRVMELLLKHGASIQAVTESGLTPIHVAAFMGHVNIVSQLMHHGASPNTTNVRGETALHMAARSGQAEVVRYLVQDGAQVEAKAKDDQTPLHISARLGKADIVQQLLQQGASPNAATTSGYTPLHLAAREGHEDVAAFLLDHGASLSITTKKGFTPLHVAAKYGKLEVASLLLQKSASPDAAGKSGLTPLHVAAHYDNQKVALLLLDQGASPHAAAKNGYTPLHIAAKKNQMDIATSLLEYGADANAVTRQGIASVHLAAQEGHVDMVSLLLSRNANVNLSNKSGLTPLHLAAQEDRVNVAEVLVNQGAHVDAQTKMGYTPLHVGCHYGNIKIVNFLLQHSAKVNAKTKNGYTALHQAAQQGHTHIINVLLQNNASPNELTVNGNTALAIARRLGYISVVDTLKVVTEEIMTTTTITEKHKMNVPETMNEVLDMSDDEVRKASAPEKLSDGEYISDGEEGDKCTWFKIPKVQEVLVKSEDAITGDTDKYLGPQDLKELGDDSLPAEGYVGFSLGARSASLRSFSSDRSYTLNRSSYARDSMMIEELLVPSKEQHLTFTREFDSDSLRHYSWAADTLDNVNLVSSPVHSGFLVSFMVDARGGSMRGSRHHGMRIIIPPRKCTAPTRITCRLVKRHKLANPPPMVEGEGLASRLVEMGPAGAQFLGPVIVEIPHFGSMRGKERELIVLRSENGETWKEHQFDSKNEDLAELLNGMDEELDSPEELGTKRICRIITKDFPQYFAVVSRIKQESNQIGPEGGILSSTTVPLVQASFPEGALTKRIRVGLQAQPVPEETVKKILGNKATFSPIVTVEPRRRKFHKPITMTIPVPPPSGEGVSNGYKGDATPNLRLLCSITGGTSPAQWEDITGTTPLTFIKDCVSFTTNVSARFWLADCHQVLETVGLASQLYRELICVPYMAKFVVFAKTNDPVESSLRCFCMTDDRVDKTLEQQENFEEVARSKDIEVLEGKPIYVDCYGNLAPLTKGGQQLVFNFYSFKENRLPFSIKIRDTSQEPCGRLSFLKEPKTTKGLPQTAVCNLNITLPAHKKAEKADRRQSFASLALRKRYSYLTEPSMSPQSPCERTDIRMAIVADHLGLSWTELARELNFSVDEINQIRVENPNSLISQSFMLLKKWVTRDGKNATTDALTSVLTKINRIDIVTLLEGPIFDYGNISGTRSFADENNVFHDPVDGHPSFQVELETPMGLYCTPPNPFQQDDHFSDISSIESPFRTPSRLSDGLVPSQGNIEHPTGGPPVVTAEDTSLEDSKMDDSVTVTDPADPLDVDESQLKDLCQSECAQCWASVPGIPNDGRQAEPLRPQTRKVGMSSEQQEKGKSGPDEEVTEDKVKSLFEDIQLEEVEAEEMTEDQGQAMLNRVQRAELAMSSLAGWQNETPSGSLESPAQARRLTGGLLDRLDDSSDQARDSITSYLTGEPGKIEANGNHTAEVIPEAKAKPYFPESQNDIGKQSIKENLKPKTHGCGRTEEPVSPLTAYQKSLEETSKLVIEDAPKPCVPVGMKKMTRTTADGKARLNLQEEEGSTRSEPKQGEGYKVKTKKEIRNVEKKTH
UniProt O70511: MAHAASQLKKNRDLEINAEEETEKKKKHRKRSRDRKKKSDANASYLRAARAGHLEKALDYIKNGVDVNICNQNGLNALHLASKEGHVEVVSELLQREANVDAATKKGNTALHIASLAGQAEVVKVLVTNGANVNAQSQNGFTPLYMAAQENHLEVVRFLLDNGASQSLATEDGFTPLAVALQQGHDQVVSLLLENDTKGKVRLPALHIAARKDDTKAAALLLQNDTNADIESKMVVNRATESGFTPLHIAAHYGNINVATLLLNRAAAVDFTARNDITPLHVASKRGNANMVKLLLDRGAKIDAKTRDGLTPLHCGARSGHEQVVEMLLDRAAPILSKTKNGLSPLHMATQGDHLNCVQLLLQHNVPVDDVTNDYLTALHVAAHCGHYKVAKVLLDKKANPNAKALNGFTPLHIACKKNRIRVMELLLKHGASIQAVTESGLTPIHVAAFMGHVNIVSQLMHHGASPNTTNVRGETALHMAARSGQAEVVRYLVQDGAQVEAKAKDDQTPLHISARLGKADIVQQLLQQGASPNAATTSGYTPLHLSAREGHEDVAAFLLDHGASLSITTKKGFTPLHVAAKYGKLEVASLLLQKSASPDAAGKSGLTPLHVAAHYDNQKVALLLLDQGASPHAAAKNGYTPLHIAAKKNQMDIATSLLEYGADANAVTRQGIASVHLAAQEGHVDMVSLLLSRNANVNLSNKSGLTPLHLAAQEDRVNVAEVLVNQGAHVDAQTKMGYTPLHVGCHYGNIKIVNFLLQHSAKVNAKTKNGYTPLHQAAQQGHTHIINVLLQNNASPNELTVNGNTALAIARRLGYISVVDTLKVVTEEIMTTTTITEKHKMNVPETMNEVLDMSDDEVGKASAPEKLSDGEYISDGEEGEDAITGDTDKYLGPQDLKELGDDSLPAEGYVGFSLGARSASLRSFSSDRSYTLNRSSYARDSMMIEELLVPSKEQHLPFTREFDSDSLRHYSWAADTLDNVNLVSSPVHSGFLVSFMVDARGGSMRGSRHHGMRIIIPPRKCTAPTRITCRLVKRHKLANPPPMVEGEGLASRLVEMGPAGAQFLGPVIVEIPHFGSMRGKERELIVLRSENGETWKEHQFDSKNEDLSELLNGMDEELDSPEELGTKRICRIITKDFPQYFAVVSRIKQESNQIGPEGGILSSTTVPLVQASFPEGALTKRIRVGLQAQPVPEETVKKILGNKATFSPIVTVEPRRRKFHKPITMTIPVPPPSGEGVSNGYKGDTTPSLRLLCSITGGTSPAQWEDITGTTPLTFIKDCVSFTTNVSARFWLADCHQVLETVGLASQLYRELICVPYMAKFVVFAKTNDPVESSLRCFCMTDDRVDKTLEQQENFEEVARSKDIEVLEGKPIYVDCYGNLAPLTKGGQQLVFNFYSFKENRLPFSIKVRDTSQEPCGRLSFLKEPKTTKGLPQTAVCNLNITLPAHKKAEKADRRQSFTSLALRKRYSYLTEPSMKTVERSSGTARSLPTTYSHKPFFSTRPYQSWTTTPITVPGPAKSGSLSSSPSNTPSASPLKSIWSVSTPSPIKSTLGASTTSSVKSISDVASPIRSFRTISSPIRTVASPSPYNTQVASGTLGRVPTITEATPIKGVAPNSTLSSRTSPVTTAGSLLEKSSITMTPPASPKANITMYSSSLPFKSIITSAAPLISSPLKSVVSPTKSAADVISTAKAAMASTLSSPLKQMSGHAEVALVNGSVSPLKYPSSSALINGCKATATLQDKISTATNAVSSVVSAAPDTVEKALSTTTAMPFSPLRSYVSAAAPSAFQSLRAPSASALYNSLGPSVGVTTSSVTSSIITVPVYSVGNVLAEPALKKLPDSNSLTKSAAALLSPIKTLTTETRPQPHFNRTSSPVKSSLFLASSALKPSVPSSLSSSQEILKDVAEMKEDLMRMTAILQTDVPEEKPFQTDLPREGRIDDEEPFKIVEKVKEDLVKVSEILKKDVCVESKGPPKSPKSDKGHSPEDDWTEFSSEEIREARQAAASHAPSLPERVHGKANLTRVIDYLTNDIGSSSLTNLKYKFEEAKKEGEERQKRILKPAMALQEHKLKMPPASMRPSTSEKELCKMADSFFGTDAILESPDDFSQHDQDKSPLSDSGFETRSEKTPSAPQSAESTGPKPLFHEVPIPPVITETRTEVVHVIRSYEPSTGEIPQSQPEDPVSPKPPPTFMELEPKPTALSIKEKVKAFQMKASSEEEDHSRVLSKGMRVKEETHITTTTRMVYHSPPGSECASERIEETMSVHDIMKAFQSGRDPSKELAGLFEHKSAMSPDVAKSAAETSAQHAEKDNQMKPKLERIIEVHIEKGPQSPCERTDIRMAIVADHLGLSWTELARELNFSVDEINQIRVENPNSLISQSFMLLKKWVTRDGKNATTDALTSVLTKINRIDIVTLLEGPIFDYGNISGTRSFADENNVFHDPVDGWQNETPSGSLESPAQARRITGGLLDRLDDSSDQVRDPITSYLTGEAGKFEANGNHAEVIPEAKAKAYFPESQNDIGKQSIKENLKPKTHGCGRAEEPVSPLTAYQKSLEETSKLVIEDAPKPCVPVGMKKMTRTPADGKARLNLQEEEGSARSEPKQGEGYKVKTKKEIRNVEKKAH

B1: IKKβ-Flag (Flag-tagged IKKβ) (enzyme, UniProt O14920 1-756)
chain: MSWSPSLTTQTCGAWEMKERLGTGGFGNVIRWHNQETGEQIAIKQCRQELSPRNRERWCLEIQIMRRLTHPNVVAARDVPEGMQNLAPNDLPLLAMEYCQGGDLRKYLNQFENCCGLREGAILTLLSDIASALRYLHENRIIHRDLKPENIVLQQGEQRLIHKIIDLGYAKELDQGSLCTSFVGTLQYLAPELLEQQKYTVTVDYWSFGTLAFECITGFRPFLPNWQPVQWHSKVRQKSEVDIVVSEDLNGTVKFSSSLPYPNNLNSVLAERLEKWLQLMLMWHPRQRGTDPTYGPNGCFKALDDILNLKLVHILNMVTGTIHTYPVTEDESLQSLKARIQQDTGIPEEDQELLQEAGLALIPDKPATQCISDGKLNEGHTLDMDLVFLFDNSKITYETQISPRPQPESVSCILQEPKRNLAFFQLRKVWGQVWHSIQTLKEDCNRLQQGQRAAMMNLLRNNSCLSKMKNSMASMSQQLKAKLDFFKTSIQIDLEKYSEQTEFGITSDKLLLAWREMEQAVELCGRENEVKLLVERMMALQTDIVDLQRSPMGRKQGGTLDDLEEQARELYRRLREKPRDQRTEGDSQEMVRLLLQAIQSFEKKVRVIYTQLSKTVVCKQKALELLPKVEEVVSLMNEDEKTVVRLQEKRQKELWNLLKIACSKVRGPVSGSPDSMNASRLSQPGQLMSQPSTASNSLPEPAKKSEELVAEAHNLCTLLENAIQDTVREQDQSFTALDWSWLQTEEEEHSCLEQAS

Experiments:
[1] = target: MAP2 (microtubule-associated protein-2) (mouse (endogenous in adult mouse cortex)) (UniProt P20357); experiment: co-IP; adult mouse cortical lysates in Na-sucrose buffer with 1% IGEPAL CA-630, 250-500 ug lysate; IP with anti-ankyrin-G (clone 463, H-215, S.E. Lux) or, in reverse, anti-IKKα/β (H-470) on protein A/G-agarose; controls anti-IgG, anti-MAP2, anti-α-Tubulin; Western blot
[2] = target: ankyrin-G (endogenous, mouse cortex) (mouse (endogenous in adult mouse cortex)) (UniProt G5E8K5); experiment: as above
[3] = target: ankyrin-G (endogenous, mouse cortex) (mouse (endogenous in adult mouse cortex)) (UniProt G5E8K5); experiment: proximity ligation; formaldehyde-fixed mature primary mouse cortical neurons, transfected or not with ankG-eGFP and IKKβ plasmids; mouse anti-ankyrin-G and rabbit anti-IKKα/β, Duolink; proximity about 40 nm
[4] = target: ankyrinG-eGFP (ankyrinG::enhanced green fluorescent protein), 270 kDa variant (UniProt O70511); experiment: as above
[5] = target: ankyrinG-eGFP (ankyrinG::enhanced green fluorescent protein), 270 kDa variant (UniProt O70511); experiment: co-IP; SH-SY5Y cells transfected for 2 days with ankG-eGFP or eGFP and IKKβ-FLAG vectors; lysis in Co-IP buffer (50 mM Tris-Cl pH 7.5, 15 mM EGTA, 100 mM NaCl, 0.1% Triton X-100); anti-GFP (B-2) on protein A/G-agarose or dynabeads protein-G; detection with anti-Flag

Molecule	binding [1]	binding [2]	binding [3]	binding [4]	binding [5]
IKKα/β (IKK-complex; pan-IKKα/β immunoreactivity) (from UniProt Q60680 1-745; O88351 1-757)	no binding	binds	binds	–	–
B1	–	–	–	binds	binds
